Results on 4 molecules are retold here after patent US20200262916A1, “Mammalian Atg8 Proteins Control Autolysosomal Biogenesis Through SNARES” (STC. UNM, priority 2019, published 2020).

Amino acid sequences for entries named in this document (tags omitted). Residues count along the entry.
UniProt O95166, residues 1-116: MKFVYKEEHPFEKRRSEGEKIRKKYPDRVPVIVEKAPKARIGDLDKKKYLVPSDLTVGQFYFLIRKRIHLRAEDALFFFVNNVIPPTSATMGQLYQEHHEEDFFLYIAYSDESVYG
UniProt Q15836, residues 2-100: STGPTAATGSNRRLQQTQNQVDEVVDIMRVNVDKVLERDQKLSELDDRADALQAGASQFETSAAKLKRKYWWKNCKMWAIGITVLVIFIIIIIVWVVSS

No constants are given. Whether binding was seen depends on the method and setting. In cells and extracts the contact can be indirect. Some results given as binding are weak or reduced against the parent protein; the word gives no strength. For some assays here: Sequences can lack the tags named with a protein.

Test [1] deals with T1, Vti1a (endogenous, in HeLa and U2OS cells) (UniProt Q96AJ9).
T1 sequence (looked up): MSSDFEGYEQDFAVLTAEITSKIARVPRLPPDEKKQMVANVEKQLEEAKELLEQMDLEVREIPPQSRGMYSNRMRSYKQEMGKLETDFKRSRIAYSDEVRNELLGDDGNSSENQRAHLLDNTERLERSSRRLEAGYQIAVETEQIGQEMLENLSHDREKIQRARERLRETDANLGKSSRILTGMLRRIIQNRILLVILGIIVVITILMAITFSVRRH
Description: endogenous Co-IP with mouse anti-Stx6 antibody, HeLa cells.

For test [2], the target named is EGFP-tagged GABARAP (overexpressed in HEK293T cells) (UniProt O95166). Description: Co-IP with anti-FLAG, overexpressed in HEK293T cells, blot with anti-GFP.
Another test addresses T2, VPS41 (endogenous) (UniProt P49754).
T2 sequence (looked up): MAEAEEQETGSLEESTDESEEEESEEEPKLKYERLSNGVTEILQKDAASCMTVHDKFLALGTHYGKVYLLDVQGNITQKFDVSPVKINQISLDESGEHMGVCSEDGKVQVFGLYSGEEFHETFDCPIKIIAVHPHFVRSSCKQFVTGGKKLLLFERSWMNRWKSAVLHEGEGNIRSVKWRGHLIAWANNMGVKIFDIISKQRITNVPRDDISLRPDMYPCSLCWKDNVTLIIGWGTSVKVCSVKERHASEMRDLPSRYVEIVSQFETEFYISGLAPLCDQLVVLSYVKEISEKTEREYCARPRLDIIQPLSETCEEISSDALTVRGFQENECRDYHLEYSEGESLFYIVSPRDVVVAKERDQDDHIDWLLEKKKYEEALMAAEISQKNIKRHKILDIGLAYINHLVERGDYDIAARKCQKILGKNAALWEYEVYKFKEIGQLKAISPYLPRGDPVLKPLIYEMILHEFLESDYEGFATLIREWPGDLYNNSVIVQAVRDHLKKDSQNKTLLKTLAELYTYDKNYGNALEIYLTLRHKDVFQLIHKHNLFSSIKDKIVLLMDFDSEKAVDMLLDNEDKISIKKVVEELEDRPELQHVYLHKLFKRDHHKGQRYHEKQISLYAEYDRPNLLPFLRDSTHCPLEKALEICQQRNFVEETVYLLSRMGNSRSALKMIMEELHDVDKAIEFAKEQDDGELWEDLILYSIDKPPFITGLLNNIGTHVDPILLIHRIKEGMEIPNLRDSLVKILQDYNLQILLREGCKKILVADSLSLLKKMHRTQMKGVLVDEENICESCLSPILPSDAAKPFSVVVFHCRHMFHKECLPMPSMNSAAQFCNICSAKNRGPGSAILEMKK
Description: Co-IP with anti-FLAG, HEK293T cells, endogenous VPS41.

Test [3] concerns the target VAMP3 (endogenous, in HEK293T cells) (UniProt Q15836). Briefly: Co-IP of FLAG-tagged Stx6 with endogenous VAMP3, HEK293T cells, full or starved (EBSS 1 h).
In test [4] the target is T1, Vti1a (endogenous, in HeLa and U2OS cells). Description: endogenous Co-IP with mouse anti-Stx6 antibody, WT and knockout HeLa cells.

B1: VPS41 (endogenous) (protein, UniProt P49754 1-854, looked up)
chain: MAEAEEQETGSLEESTDESEEEESEEEPKLKYERLSNGVTEILQKDAASCMTVHDKFLALGTHYGKVYLLDVQGNITQKFDVSPVKINQISLDESGEHMGVCSEDGKVQVFGLYSGEEFHETFDCPIKIIAVHPHFVRSSCKQFVTGGKKLLLFERSWMNRWKSAVLHEGEGNIRSVKWRGHLIAWANNMGVKIFDIISKQRITNVPRDDISLRPDMYPCSLCWKDNVTLIIGWGTSVKVCSVKERHASEMRDLPSRYVEIVSQFETEFYISGLAPLCDQLVVLSYVKEISEKTEREYCARPRLDIIQPLSETCEEISSDALTVRGFQENECRDYHLEYSEGESLFYIVSPRDVVVAKERDQDDHIDWLLEKKKYEEALMAAEISQKNIKRHKILDIGLAYINHLVERGDYDIAARKCQKILGKNAALWEYEVYKFKEIGQLKAISPYLPRGDPVLKPLIYEMILHEFLESDYEGFATLIREWPGDLYNNSVIVQAVRDHLKKDSQNKTLLKTLAELYTYDKNYGNALEIYLTLRHKDVFQLIHKHNLFSSIKDKIVLLMDFDSEKAVDMLLDNEDKISIKKVVEELEDRPELQHVYLHKLFKRDHHKGQRYHEKQISLYAEYDRPNLLPFLRDSTHCPLEKALEICQQRNFVEETVYLLSRMGNSRSALKMIMEELHDVDKAIEFAKEQDDGELWEDLILYSIDKPPFITGLLNNIGTHVDPILLIHRIKEGMEIPNLRDSLVKILQDYNLQILLREGCKKILVADSLSLLKKMHRTQMKGVLVDEENICESCLSPILPSDAAKPFSVVVFHCRHMFHKECLPMPSMNSAAQFCNICSAKNRGPGSAILEMKK
With B1, the binding entry in test [1] is on record as “binds”.

B2: Vti1a (endogenous, in HeLa and U2OS cells) (other, UniProt Q96AJ9 1-217, looked up)
chain: MSSDFEGYEQDFAVLTAEITSKIARVPRLPPDEKKQMVANVEKQLEEAKELLEQMDLEVREIPPQSRGMYSNRMRSYKQEMGKLETDFKRSRIAYSDEVRNELLGDDGNSSENQRAHLLDNTERLERSSRRLEAGYQIAVETEQIGQEMLENLSHDREKIQRARERLRETDANLGKSSRILTGMLRRIIQNRILLVILGIIVVITILMAITFSVRRH
For the molecule B2, the binding result in test [2] was “binds”.

B3: FLAG-tagged Stx6 (overexpressed in HEK293T cells) (protein, UniProt O43752 1-255, looked up, not shown: small tags and cut ends)
chain: MSMEDPFFVVKGEVQKAVNTAQGLFQRWTELLQDPSTATREEIDWTTNELRNNLRSIEWDLEDLDETISIVEANPRKFNLDATELSIRKAFITSTRQVVRDMKDQMSTSSVQALAERKNRQALLGDSGSQNWSTGTTDKYGRLDRELQRANSHFIEEQQAQQQLIVEQQDEQLELVSGSIGVLKNMSQRIGGELEEQAVMLEDFSHELESTQSRLDNVMKKLAKVSHMTSDRRQWCAIAILFAVLLVVLILFLVL
With B3, the binding result (in the test with VPS41 (endogenous); in test [3]) was “binds” in each case.

B4: Stx6 (endogenous, precipitated with mouse anti-Stx6 antibody from HeLa cells) (other, UniProt O43752 2-255, looked up)
chain: SMEDPFFVVKGEVQKAVNTAQGLFQRWTELLQDPSTATREEIDWTTNELRNNLRSIEWDLEDLDETISIVEANPRKFNLDATELSIRKAFITSTRQVVRDMKDQMSTSSVQALAERKNRQALLGDSGSQNWSTGTTDKYGRLDRELQRANSHFIEEQQAQQQLIVEQQDEQLELVSGSIGVLKNMSQRIGGELEEQAVMLEDFSHELESTQSRLDNVMKKLAKVSHMTSDRRQWCAIAILFAVLLVVLILFLVL
notes: also called syntaxin 6
Consider B4, for which the binding result in test [4] is “binds”.
